PubChem BioAssay AID504744, Drosophila RNAi Screening Center – 2011

Test: 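Find genes whose loss alters insulin-driven dAkt phosphorylation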 (primary screen)
Cells: Drosophila Kc167 cells
Knock-down reagent: long dsRNA against Drosophila genes, 250 ng dsRNA per well of a 384-well plate
Timing: 3 days of knock-down, then overnight serum-free starvation before stimulation
Conditions: bovine insulin at 387 nM for 10 minutes after 12 h without serum
Detection: 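Per-well phospho-dAkt level from an in-cell fluorescent antibody stain, divided by a DNA-dye signal; log2 residuals turned into z-scores that take cell number into account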
Active means: 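Under insulin, a gene counts as a hit if the average z-score of two replicates lies above 2.5 or below -2.5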
In all, the deposit lists about 23,000 reagents; this is a random part of those that have a named target and a result. Over the whole deposit, 98 (0.43%) got an active call. 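Only hit calls are given; the phospho-dAkt signals, z-scores and hit direction were not deposited.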 Names joined by + are all predicted targets of the reagent. No sequences are given here.

predicted target | DRSC id | Outcome
PolG1 (DNA polymerase gamma subunit 1) | DRSC03621 | inactive
Pak (p21-activated kinase) | DRSC12602 | inactive
CG32407 | DRSC09789 | inactive
cyr (cypher) | DRSC18017 | inactive
cyr (cypher) | DRSC18018 | inactive
cyr (cypher) | DRSC18021 | inactive
plu (plutonium) | DRSC07665 | inactive
CG9184 | DRSC08636 | inactive
CG9184 | DRSC22184 | inactive
mnb (minibrain) | DRSC20058 | inactive
mnb (minibrain) | DRSC20353 | inactive
CG1075 (retired record) | DRSC12144 | inactive
CG10226 | DRSC09715 | inactive
RtGEF (Rho-type guanine nucleotide exchange factor) | DRSC03604 | inactive
RtGEF (Rho-type guanine nucleotide exchange factor) | DRSC22207 | inactive
beta-Man (beta-Mannosidase) | DRSC12208 | inactive
beta-Man (beta-Mannosidase) | DRSC12209 | inactive
Ance-2 | DRSC02539 | inactive
Rtca (RNA 3'-terminal phosphate cyclase) | DRSC18517 | inactive
grk (gurken) | DRSC03540 | inactive
Klp3A (Kinesin-like protein at 3A) | DRSC18676 | inactive
Klp3A (Kinesin-like protein at 3A) | DRSC21625 | inactive
CG42240 | DRSC18097 | inactive
CG17715 | DRSC11950 | inactive
CG5676 | DRSC02875 | inactive
mRpS21 (mitochondrial ribosomal protein S21) | DRSC12965 | inactive
mRpS21 (mitochondrial ribosomal protein S21) | DRSC21357 | inactive
BEAF-32 (Boundary element-associated factor of 32kD) | DRSC05927 | inactive
Daao2 (D-amino acid oxidase 2) | DRSC02135 | inactive
RnpS1 (RNA-binding protein S1) | DRSC15154 | inactive
da | DRSC03517 | inactive
CG13040 | DRSC09921 | inactive
CG4297 | DRSC00651 | inactive
ND-ACP | DRSC08724 | inactive
CG14882 | DRSC15006 | inactive
CG43316 | DRSC06296 | inactive
CG43316 | DRSC06297 | inactive
Trax (Translin associated factor X) | DRSC15709 | inactive
Vps16B (Vacuolar protein sorting 16B) | DRSC15304 | inactive
CG15083 | DRSC06514 | inactive
Utx (Utx histone demethylase) | DRSC02872 | inactive
CG13311 | DRSC09982 | inactive
Pdp (Pyruvate dehydrogenase phosphatase) | DRSC17825 | inactive
ranshi | DRSC16564 | inactive
ImpE2 (Ecdysone-inducible gene E2) | DRSC08665 | inactive
Lnpk (Lunapark) | DRSC07254 | inactive
CG6830 | DRSC16124 | inactive
CG6431 | DRSC02956 | inactive
CG33111 | DRSC14208 | inactive
CG33111 | DRSC14444 | inactive
Gbp3 (Growth-blocking peptide 3) | DRSC15206 | inactive
Cdc14 (Cell division cycle 14) | DRSC03013 | inactive
CG13983 | DRSC02315 | inactive
CG13038 | DRSC09919 | inactive
PyK (Pyruvate kinase) | DRSC16806 | inactive
CG12236 | DRSC17830 | inactive
CG12236 | DRSC17831 | inactive
bug (bunker gear) | DRSC07137 | inactive
AsnS (Asparagine synthetase) | DRSC11468 | inactive
CG14194 | DRSC19549 | inactive
CG33514 | DRSC08471 | inactive
CG33514 | DRSC08472 | inactive
CG33514 | DRSC21670 | inactive
CG16978 | DRSC02553 | inactive
RpS6 (Ribosomal protein S6) | DRSC18712 | inactive
CG10911 | DRSC06008 | inactive
T3dh + pgc | DRSC04659 | inactive
CG12438 | DRSC02167 | inactive
CG32551 | DRSC19259 | inactive
Dnaaf5 (Dynein axonemal assembly factor 5) | DRSC13032 | inactive
Chpf (Chondroitin polymerizing factor) | DRSC19491 | inactive
Chpf (Chondroitin polymerizing factor) | DRSC19893 | inactive
CG10068 | DRSC12508 | inactive
CG31683 + CG18858 | DRSC02703 | inactive
OXA1L (OXA1L mitochondrial inner membrane protein) | DRSC09672 | inactive
Apc (APC-like) | DRSC14114 | inactive
CG17198 + CG17197 | DRSC15190 | inactive
CG17198 + CG17197 | DRSC15191 | inactive
CG7582 | DRSC16261 | inactive
Rfx | DRSC16820 | inactive
Npc1a (Niemann-Pick type C-1a) | DRSC03378 | inactive
Rap1 (Rap1 GTPase) | DRSC08686 | inactive
IleRS-m (Isoleucyl-tRNA synthetase, mitochondrial) | DRSC10506 | inactive
Cp190 (Centrosomal protein 190kD) | DRSC16607 | inactive
Lamp1 | DRSC03727 | inactive
CG32240 | DRSC08093 | inactive
sofe | DRSC19751 | inactive
Ns2 (Nucleostemin 2) | DRSC06993 | inactive
CG18765 | DRSC15392 | inactive
CG7747 | DRSC07038 | inactive
key (kenny) | DRSC04285 | inactive
DENR (Density regulated protein) | DRSC20151 | inactive
CG14069 | DRSC02372 | inactive
Ziz (Zizimin) | DRSC02506 | inactive
Ziz (Zizimin) | DRSC02976 | inactive
wa-cup (walker cup) | DRSC12511 | inactive
raptor | DRSC18359 | inactive
CG42553 | DRSC08356 | inactive
pdm3 (pou domain motif 3) | DRSC06076 | inactive
pdm3 (pou domain motif 3) | DRSC06490 | inactive
pdm3 (pou domain motif 3) | DRSC22326 | inactive
sqz (squeeze) | DRSC16980 | inactive
MED6 (Mediator complex subunit 6) | DRSC16500 | inactive
Creld (Cysteine rich with EGF like domains) | DRSC00308 | inactive
CG18605 | DRSC06772 | inactive
Ir94e (Ionotropic receptor 94e) | DRSC15229 | inactive
fan (farinelli) | DRSC10930 | inactive
